{"source": "paper PMC7084607", "target": "T1, OsWUS (rice (Oryza sativa L.)) (UniProt Q7XM13)", "T1 sequence": "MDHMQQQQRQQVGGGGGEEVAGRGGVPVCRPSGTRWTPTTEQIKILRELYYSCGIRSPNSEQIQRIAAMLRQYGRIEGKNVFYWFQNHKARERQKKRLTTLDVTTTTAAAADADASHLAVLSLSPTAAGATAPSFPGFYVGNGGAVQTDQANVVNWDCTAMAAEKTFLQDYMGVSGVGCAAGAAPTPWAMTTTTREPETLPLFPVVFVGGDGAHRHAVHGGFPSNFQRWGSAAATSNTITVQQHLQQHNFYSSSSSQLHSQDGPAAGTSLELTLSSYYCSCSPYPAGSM", "assay": "two-hybrid; in yeast cells (Supplementary Figure S3); constructs and orientation not told", "note": "No constants are given. Whether binding was seen depends on the method and setting. A result given as binding can be weak or reduced; the word gives no strength.", "data": [{"substance": "OsPUB4 (rice (Oryza sativa L.))", "values": [{"measurement": "binding", "value": "binds"}]}]}
